Results published in PubChem BioAssay AID202 (DTP/NCI, 2004).
The list does not hold the whole screen: its compounds were picked by chemical class. Other doses and runs of a compound may be missing. T/C is the treated group as % of the vehicle group. Schedules are NCI's codes, taken here to give the interval after Q, in days (D) or hours (H), and the number of doses after X. Some entries show no survivor count and are marked so; the dose need not have been tolerated.

System: HT29 xenograft, nude mice, s.c., tumor weight T/C%
Test: NCI In Vivo Anticancer Drug Screen. Data for tumor model HT29;CX-1 Human Adenocarcinoma (MER+) (subcutaneous) in NU/NU Swiss (nude) mice
Details: T/C endpoint: optimum tumor weight change, schedule: Q04DX003 (ip), vehicle: water, evaluated on day 34, higher T/C = larger tumour
Experimental: The antitumor activity of compounds was measured in mice bearing transplantable tumors. Survival or tumor size were measured and the results are expressed as the measurement made in the treated group (T) divided by the measurement made in the vehicle treated control group (C). The tumor model used in this assay is HT29;CX-1 Human Adenocarcinoma (MER+) (subcutaneous) in NU/NU Swiss (nude) mice

`CC(=O)OCC12CCC(C)=CC1OC1C(O)C(OC(C)=O)C2(C)C12CO2` (configuration not stated) was tested, and the T/C (dose: 0.5 mg/kg/injection) was 42 % of control [survivor count not shown] and the T/C (dose: 2.0 mg/kg/injection) was 60 % of control [survivor count not shown].
